Measurements reported in PubChem BioAssay AID1159584 (Peter MacCallum Cancer Centre, 2016).
This is an unselected part of about 18,000 deposited reagents. Further read-outs or replicates are left out here. Not given: the amount of reagent, the time to read-out.

- Screen: 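Genes that CDH1-null MCF10A cells selectively depend on to survive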 (primary screen)
- System: human MCF10A breast epithelial cells, parental and CDH1-null
- Reagents: siRNA against human genes
- Detection: 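ATP luminescence (CellTiter-Glo) viability per line relative to mean mock wells over all plates, and the ratio of CDH1-null to parental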
- Reading the numbers: CDH1-null / parental viability ratio: higher = CDH1-null cells survive relatively better than parental

Knock-down of KBTBD7 came out at: CDH1-null / parental viability ratio 1.13. FOXP3 showed CDH1-null / parental viability ratio 0.98. With knock-down of AKT1S1, the screen gave CDH1-null / parental viability ratio 1.1. Silencing of CFAP61 gave: CDH1-null / parental viability ratio 1.01. Knock-down of PNN resulted in: CDH1-null / parental viability ratio 1.11. Knock-down of NT5C gave: CDH1-null / parental viability ratio 1.57.

PREX2 scored CDH1-null / parental viability ratio 0.97. With knock-down of MPST, the screen gave CDH1-null / parental viability ratio 1. For COL18A1, the entry reads CDH1-null / parental viability ratio 1.36. After knock-down of MMP14 the results were CDH1-null / parental viability ratio 1.01. For FSD2 the deposit lists CDH1-null / parental viability ratio 0.63. With knock-down of LRRN4CL the results were CDH1-null / parental viability ratio 0.9.

Depletion of ZDHHC3 came out at: CDH1-null / parental viability ratio 1.2. Depletion of SIX2 resulted in: CDH1-null / parental viability ratio 1.09.

2 of these entries in another layout:
| gene | CDH1-null / parental viability ratio |
| --- | --- |
| AKT1S1 | 1.1 |
| CFAP61 | 1.01 |
